# Data taken from PubChem BioAssay AID1671190 (National Center for Advancing Translational Sciences (NCATS), 2021).
# Protein sequences, listed by entry. Tags and fused reporters are not part of them.
# UniProt P18054, whole entry, looked up: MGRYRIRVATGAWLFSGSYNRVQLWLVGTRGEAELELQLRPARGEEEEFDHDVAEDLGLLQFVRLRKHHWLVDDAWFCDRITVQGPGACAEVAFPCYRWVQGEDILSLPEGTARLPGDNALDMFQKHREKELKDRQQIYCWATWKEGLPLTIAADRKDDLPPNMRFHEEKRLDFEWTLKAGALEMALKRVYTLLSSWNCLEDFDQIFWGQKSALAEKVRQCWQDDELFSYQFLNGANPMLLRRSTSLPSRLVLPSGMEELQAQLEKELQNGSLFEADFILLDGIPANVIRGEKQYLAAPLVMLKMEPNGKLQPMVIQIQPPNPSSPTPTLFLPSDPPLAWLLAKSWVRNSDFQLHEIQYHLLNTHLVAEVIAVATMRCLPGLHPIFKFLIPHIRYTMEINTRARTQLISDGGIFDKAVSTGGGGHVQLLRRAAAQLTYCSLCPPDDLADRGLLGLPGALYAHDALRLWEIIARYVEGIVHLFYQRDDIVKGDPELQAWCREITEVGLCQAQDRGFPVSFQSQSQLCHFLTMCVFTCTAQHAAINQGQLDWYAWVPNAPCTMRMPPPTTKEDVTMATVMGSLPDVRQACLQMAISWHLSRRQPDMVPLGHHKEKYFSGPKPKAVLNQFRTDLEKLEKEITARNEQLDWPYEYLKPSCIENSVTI
# Out of some 580,000 compounds screened, about 6,100 (1.1%) were called active. Inconclusive means that the source gave no clear call. Such entries were picked first, then a sample of the others. Calls come from the whole dose curve; as a rule, active = well fitted inhibition curve with a large enough effect; inconclusive = small, poorly fitted or top-dose-only effect, or another doubt; inactive = no such curve, though single readings can be large or run the other way. Potencies beside an inconclusive call are fits to weak or partial responses and may not hold up.
# Biological target: Polyunsaturated fatty acid lipoxygenase ALOX12 (Homo sapiens) (UniProt P18054)
# Test: Primary qHTS assay for inhibitors of human arachidonate 12S-lipoxygenase (ALOX12): Round 2
# Details: purified 12hLO, xylenol orange hydroperoxide absorbance; activity change, negative = inhibition: at 108 µM (top of the series) unless noted
# Outline: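 Purified human 12hLO at 150 nM in 25 mM Hepes, 0.01% Triton X-100, pH 7.0, preincubated 15 min at room temperature with compound. Reaction started with 40 uM arachidonic acid, 30 min at room temperature. Hydroperoxide measured by Fe-xylenol orange, 573/405 nm absorbance ratio.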
# % is set by controls: 0 for no effect and ±100 for the full control effect; potency is the fitted concentration of half-maximal effect.
Structure (SMILES),Potency,"activity change, negative = inhibition"
N#C/C(=C\c1ccc(C#N)cc1)C(=O)c1ccccc1,"inconclusive: 39.8 µM [inhibitor, partial curve, poor fit]",–
CCOc1ccc(S(=O)(=O)Nc2cccc(-c3ccc(N4CCC(C)CC4)nn3)c2)cc1,–,inconclusive: -30.7% [inhibitor]
CC(=O)Nc1ccc(NC(=O)c2ccc(-c3c(C)noc3C)c3ccoc23)cc1,inactive,–
CCN1CCN(c2ncnc3c2cnn3-c2cccc(C)c2)CC1,inactive,–
CC(C)Nc1nc(NC(C)C)nc(N(C#N)CCOc2ccc(Cl)cc2Cl)n1,"inconclusive: 56.2 µM [inhibitor, partial curve, poor fit]",–
C[C@H](NC(=O)C1CC(=O)N(c2ccc(F)cc2)C1)C(=O)N1CCCCC1 (stereo partly specified),inactive,–
CN(C)c1ccc(CNC(=O)C2COc3ccccc3C2)cc1 (stereo unspecified),"inconclusive: 2.51 µM [inhibitor, full curve, poor fit]",–
COCCN1CCCCCC(O)c2cc(C(=O)NCCN3CCCCC3)ccc21 (stereo unspecified),inactive,–
Clc1ccccc1CN1CCc2ccccc2C1,"inconclusive: 1.12 µM [inhibitor, full curve, poor fit]",–
CN=C1NC(C)(C)C2CCC(C)(CC2)S1,inactive,–
C/C(=N\NC(=S)NCCc1ccccc1)c1cccc(Br)c1,active: 44.7 µM,–
COc1ccc(Br)cc1/C=C(/C#N)C(=O)C(C)C,inactive,–
COc1ccc(C(=O)Oc2ccc3c(=O)c(-c4ccccc4)coc3c2)cc1OC,inactive,–
Fc1cccc(CCN2CCNC[C@@H]2CC2CCCCC2)c1,"inconclusive: 70.8 µM [inhibitor, single point]",–
CCOc1ccccc1NC(=O)C1CCCN1S(=O)(=O)c1ccc2nc(-c3ccccc3)[nH]c2c1 (stereo unspecified),inactive,–
CN(C)C(=S)N=c1ssc(=S)n1Cc1ccccc1,"inconclusive: 50.1 µM [inhibitor, partial curve, poor fit]",–
CC1CC(N(C(=O)c2ccc(Cl)cc2)c2ccccc2)c2ccccc2N1C(=O)c1ccco1 (stereo unspecified),inactive,–
CCN(c1cccc(C)c1)S(=O)(=O)c1ccc2c(c1)NC(=O)CS2,"inconclusive: 112 µM [inhibitor, single point]",–
CN(Cc1ccccc1)C(=O)COC(=O)c1cc(=O)c2ccccc2o1,"inconclusive: 112 µM [inhibitor, single point]",–
Cc1c(C(=O)NCc2cccc(C(F)(F)F)c2)sc(=O)n1Cc1cccc(F)c1,"inconclusive: 50.1 µM [inhibitor, partial curve, poor fit]",–
CN(C)C(=O)c1ccc(NC(=O)CSc2ccc(F)cc2)cc1,inactive,–
CCc1nc(-c2c3n(c(=O)n(CC(=O)Nc4ccccc4CC)c2=O)CCCC3)no1,"inconclusive: 7.94 µM [inhibitor, full curve, poor fit]",–

# Grouped by structure, those above containing a halogen
Structure (SMILES),Potency,"activity change, negative = inhibition"
CC(C)Nc1nc(NC(C)C)nc(N(C#N)CCOc2ccc(Cl)cc2Cl)n1,"inconclusive: 56.2 µM [inhibitor, partial curve, poor fit]",–
C[C@H](NC(=O)C1CC(=O)N(c2ccc(F)cc2)C1)C(=O)N1CCCCC1 (stereo partly specified),inactive,–
Clc1ccccc1CN1CCc2ccccc2C1,"inconclusive: 1.12 µM [inhibitor, full curve, poor fit]",–
C/C(=N\NC(=S)NCCc1ccccc1)c1cccc(Br)c1,active: 44.7 µM,–
COc1ccc(Br)cc1/C=C(/C#N)C(=O)C(C)C,inactive,–
Fc1cccc(CCN2CCNC[C@@H]2CC2CCCCC2)c1,"inconclusive: 70.8 µM [inhibitor, single point]",–
CC1CC(N(C(=O)c2ccc(Cl)cc2)c2ccccc2)c2ccccc2N1C(=O)c1ccco1 (stereo unspecified),inactive,–
Cc1c(C(=O)NCc2cccc(C(F)(F)F)c2)sc(=O)n1Cc1cccc(F)c1,"inconclusive: 50.1 µM [inhibitor, partial curve, poor fit]",–
CN(C)C(=O)c1ccc(NC(=O)CSc2ccc(F)cc2)cc1,inactive,–

# More records:

Structure (SMILES),Potency,"activity change, negative = inhibition"
CCCOC(=O)c1cn(C)nc1S(=O)(=O)N1CCSCC1,"inconclusive: 39.8 µM [inhibitor, partial curve, poor fit]",–
CCOc1ccc(S(=O)(=O)Nc2ccc3oc4c(c3c2)CC(C)CC4)cc1 (stereo unspecified),"inconclusive: 50.1 µM [inhibitor, partial curve, poor fit]",–
Clc1ccc(-c2cn3cc(Cl)ccc3n2)cc1,inactive,–
O=C(Nc1ccc(C(O)(C(F)(F)F)C(F)(F)F)cc1)c1ccc(Cl)c([N+](=O)[O-])c1,"inconclusive: 50.1 µM [inhibitor, partial curve, poor fit]",–
Cc1c(O)ccc2c(CN3CCCCCC3)cc(=O)oc12,"inconclusive: 44.7 µM [inhibitor, partial curve, poor fit]",–
CC(C)CN(CC(C)C)CC(O)Cn1cc(/C=C/C(=O)c2ccccc2)c2ccccc21 (stereo unspecified),"inconclusive: 79.4 µM [inhibitor, partial curve, poor fit]",–
Cc1nnc(SCc2nc3ccccc3s2)n1-c1ccccc1,"inconclusive: 44.7 µM [inhibitor, partial curve, poor fit]",–
Cc1ccccc1NC(=S)NCCc1ccccc1,"inconclusive: 50.1 µM [inhibitor, partial curve, poor fit]",–
O=C(Nc1ccc(N2CCCC2)cc1)c1ccc2ccccc2c1,"inconclusive: 50.1 µM [inhibitor, partial curve, poor fit]",–
Cc1cccc2cc(COC(=O)c3cccnc3)c(=O)[nH]c12,"inconclusive: 44.7 µM [inhibitor, single point]",–
Cc1ccsc1C=Nc1ccc(C23CC4CC(CC(C4)C2)C3)cc1,"inconclusive: 50.1 µM [inhibitor, partial curve, poor fit]",–
CC(NC(=O)Nc1ccc([N+](=O)[O-])cc1)C(c1ccccc1)N1CCOCC1 (stereo unspecified),"inconclusive: 50.1 µM [inhibitor, single point]",–
Cc1nnsc1C(=O)NNc1ccc(C(C)(C)C)cc1,"inconclusive: 25.1 µM [inhibitor, partial curve, poor fit]",–
COc1ccc(CN2C(=O)/C(=C/c3ccncc3)SC2=S)cc1,"inconclusive: 56.2 µM [inhibitor, partial curve, poor fit]",–
O=C(N/N=C/c1cccc(Cl)c1)C(c1ccncc1)N1CCOCC1 (stereo unspecified),"inconclusive: 89.1 µM [inhibitor, partial curve, poor fit]",–
COc1ccc(CN(C)CC(O)COc2ccc(-c3ccccc3)cc2)cc1OC (stereo unspecified),"inconclusive: 7.08 µM [inhibitor, full curve]",–
O=C(NNC(=O)c1ccccc1-n1cccc1)c1ccc(Cl)nc1,inactive,–
Cc1ccc(-c2[nH]nc3c2C(C)C(C#N)=C(N)O3)cc1 (stereo unspecified),inactive,–
Cc1ccc(NC(=O)CC2CCCN(c3cn[nH]c(=O)c3)C2)cc1C (stereo unspecified),inactive,–
Cc1ccc(C(=O)Nc2cccc(S(=O)(=O)N3CCOCC3)c2)cc1[N+](=O)[O-],inactive,–
OC(c1ccc(Cl)c(F)c1)c1ncc(-c2ccc(Cl)cc2)[nH]1 (stereo unspecified),"inconclusive: 44.7 µM [inhibitor, partial curve, poor fit]",–
COc1ccccc1C1CC(=O)Oc2ccc(C(C)(C)C)cc21 (stereo unspecified),"inconclusive: 126 µM [inhibitor, single point]",–

# Two records drawn at random from the list so far, as already listed:
Structure (SMILES),Potency,"activity change, negative = inhibition"
COc1ccc(CN2C(=O)/C(=C/c3ccncc3)SC2=S)cc1,"inconclusive: 56.2 µM [inhibitor, partial curve, poor fit]",–
O=C(Nc1ccc(C(O)(C(F)(F)F)C(F)(F)F)cc1)c1ccc(Cl)c([N+](=O)[O-])c1,"inconclusive: 50.1 µM [inhibitor, partial curve, poor fit]",–

# Additional entries

Structure (SMILES),Potency,"activity change, negative = inhibition"
NC(N)=N/N=C/c1c(Cl)cccc1Cl,"inconclusive: 3.55 µM [inhibitor, full curve, poor fit]",–
O=C(COc1ccc([N+](=O)[O-])cc1)Nc1ccc2oc(-c3ccc(F)cc3)nc2c1,active: 7.94 µM,–
CCOC(=O)N1CCC(N2CCN(S(=O)(=O)c3ccc4ccccc4c3)CC2)CC1,"inconclusive: 35.5 µM [inhibitor, partial curve, poor fit]",–
COc1ccc(C)c2sc(NC(=O)c3ccc(S(=O)(=O)N4CCCC4)cc3)nc12,"inconclusive: 44.7 µM [inhibitor, partial curve, poor fit]",–
O=C(NCCCN1CCN(CCCNC(=O)c2ccc(F)cc2)CC1)c1ccc(F)cc1,inactive,–
COc1ccccc1-c1nc(-c2nnn3c2COC(c2ccc(Cl)cc2)C3)no1 (stereo unspecified),inactive,–
CN(CC(=O)Nc1ccc(N2CCOCC2)cc1)C(=O)c1cn(-c2ccccc2)nc1-c1ccccc1,"inconclusive: 50.1 µM [inhibitor, partial curve, poor fit]",–
O=C(O)C(c1c[nH]c2ccc(Cl)cc12)N1CCN(C/C=C/c2ccccc2)CC1 (stereo unspecified),"inconclusive: 11.2 µM [inhibitor, full curve, poor fit]",–
O=C(Nc1ccc(N2CCOCC2)cc1N1CCOCC1)c1ccco1,"inconclusive: 89.1 µM [inhibitor, partial curve, poor fit]",–
CCCCCNC(=O)c1ccc(CN2C(=O)NC3(CCS(=O)(=O)CC3)C2=O)cc1,"inconclusive: 56.2 µM [inhibitor, single point]",–
O=c1cc(CSc2nnnn2-c2ccccc2)c2ccc(O)cc2o1,"inconclusive: 44.7 µM [inhibitor, single point]",–
O=C1C[C@H]2CCCCC(=O)N3CC[C@@H](C1)[C@@H]23,"inconclusive: 126 µM [inhibitor, partial curve, poor fit]",–
CNC(=O)NC(=O)COC(=O)c1ccc2c(=O)n3c(nc2c1)CCCCCC3,inactive,–
O=c1/c(=C/c2ccccc2)sc2nnc(-c3cccs3)n12,"inconclusive: 112 µM [inhibitor, partial curve, poor fit]",–
COc1cccc(C(=O)Nc2ccc(NC(=O)C3CC3)nc2)c1,"inconclusive: 89.1 µM [inhibitor, partial curve, poor fit]",–
COc1ccc(Nc2cc3n(c(=O)n2)CCc2cc(OC)c(OC)cc2-3)cc1,"inconclusive: 8.91 µM [inhibitor, partial curve, poor fit]",–
CCCCOc1ccc(-c2csc(N)n2)cc1[N+](=O)[O-],inactive,–
CCc1nn2cc(C(=O)c3cc(C)ccc3O)cnc2c1-c1ccc(F)cc1,inactive,–
CCS(=O)(=O)N1CCN(C(=O)c2ccc(-c3ccccc3)cc2)CC1,"inconclusive: 44.7 µM [inhibitor, partial curve, poor fit]",–
Cc1ccc(S(=O)(=O)NCC(=O)OCC(=O)Nc2cccc(S(=O)(=O)NC3=NCCCCC3)c2)cc1C,"inconclusive: 44.7 µM [inhibitor, partial curve, poor fit]",–
Cc1ccc(C(=O)NCCn2cc(SCC(=O)Nc3nnc(C)s3)c3ccccc32)cc1,"inconclusive: 70.8 µM [inhibitor, partial curve, poor fit]",–
CCC1=C(OC(=O)N(CC)CC)N2C(=O)OC(=NCCc3c[nH]c4ccccc34)[C@]2(C)[C@H]2C1=CC[C@H]1C(=O)N(CC)C(=O)[C@H]12,"inconclusive: 63.1 µM [inhibitor, partial curve, poor fit]",–
